Residue numbers refer to the chain shown, from its start. The list shows a part of the results.
Tests used:
Conditions in all cases: yeast three-hybrid, YBZ-1, SC-Leu-His + 0.5 mM 3-AT, 4 days
[1] = biological target: T1, PUM1 PUF domain R3-ARG C935A + Q939G (Homo sapiens) (UniProt Q14671)
T1 sequence: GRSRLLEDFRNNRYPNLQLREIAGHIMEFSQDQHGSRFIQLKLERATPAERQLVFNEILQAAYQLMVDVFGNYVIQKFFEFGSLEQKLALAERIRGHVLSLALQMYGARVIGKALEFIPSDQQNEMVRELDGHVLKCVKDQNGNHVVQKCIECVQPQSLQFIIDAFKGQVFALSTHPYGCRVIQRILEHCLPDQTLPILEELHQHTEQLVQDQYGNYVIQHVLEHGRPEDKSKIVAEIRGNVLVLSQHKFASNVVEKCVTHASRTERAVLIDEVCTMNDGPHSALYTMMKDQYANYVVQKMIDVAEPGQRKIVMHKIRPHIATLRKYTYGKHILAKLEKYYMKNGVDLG

[2] = biological target: T2, PUM1 PUF domain R3-ARL C935A + Q939L (Homo sapiens) (UniProt Q14671)
T2 sequence: T1 sequence with G112L

[3] = biological target: T3, PUM1 PUF domain R3-ARV C935A + Q939V (Homo sapiens) (UniProt Q14671)
T3 sequence: T1 sequence with G112V

[4] = biological target: T4, PUM1 PUF domain R3-GPS C935G + R936P + Q939S (Homo sapiens) (UniProt Q14671)
T4 sequence: T1 sequence with A108G, R109P, G112S

[5] = biological target: T5, PUM1 PUF domain R3-GRV C935G + Q939V (Homo sapiens) (UniProt Q14671)
T5 sequence: T1 sequence with A108G, G112V

[6] = biological target: T6, PUM1 PUF domain R3-GYW C935G + R936Y + Q939W (Homo sapiens) (UniProt Q14671)
T6 sequence: T1 sequence with A108G, R109Y, G112W

[7] = biological target: T7, PUM1 PUF domain R3-PFL C935P + R936F + Q939L (Homo sapiens) (UniProt Q14671)
T7 sequence: T1 sequence with A108P, R109F, G112L

[8] = biological target: T8, PUM1 PUF domain R3-RPR C935R + R936P + Q939R (Homo sapiens) (UniProt Q14671)
T8 sequence: T1 sequence with A108R, R109P, G112R

[9] = biological target: T9, PUM1 PUF domain R3-RPS C935R + R936P + Q939S (Homo sapiens) (UniProt Q14671)
T9 sequence: T1 sequence with A108R, R109P, G112S

[10] = biological target: T10, PUM1 PUF domain R3-RSV C935R + R936S + Q939V (Homo sapiens) (UniProt Q14671)
T10 sequence: T1 sequence with A108R, R109S, G112V

[11] = biological target: T11, PUM1 PUF domain R3-RTF C935R + R936T + Q939F (Homo sapiens) (UniProt Q14671)
T11 sequence: T1 sequence with A108R, R109T, G112F

[12] = biological target: T12, PUM1 PUF domain R3-RTG C935R + R936T + Q939G (Homo sapiens) (UniProt Q14671)
T12 sequence: T1 sequence with A108R, R109T

[13] = biological target: T13, PUM1 PUF domain R3-RTS C935R + R936T + Q939S (Homo sapiens) (UniProt Q14671)
T13 sequence: T1 sequence with A108R, R109T, G112S

[14] = biological target: T14, PUM1 PUF domain R3-RTV C935R + R936T + Q939V (Homo sapiens) (UniProt Q14671)
T14 sequence: T1 sequence with A108R, R109T, G112V

[15] = biological target: T15, PUM1 PUF domain R3-RVM C935R + R936V + Q939M (Homo sapiens) (UniProt Q14671)
T15 sequence: T1 sequence with A108R, R109V, G112M

[16] = biological target: T16, PUM1 PUF domain R3-SRL C935S + Q939L (Homo sapiens) (UniProt Q14671)
T16 sequence: T1 sequence with A108S, G112L

[17] = biological target: T17, PUM1 PUF domain R3-VRF C935V + Q939F (Homo sapiens) (UniProt Q14671)
T17 sequence: T1 sequence with A108V, G112F

[18] = biological target: T18, PUM1 PUF domain R3-VRI C935V + Q939I (Homo sapiens) (UniProt Q14671)
T18 sequence: T1 sequence with A108V, G112I

[19] = biological target: T19, PUM1 PUF domain R3-VWP C935V + R936W + Q939P (Homo sapiens) (UniProt Q14671)
T19 sequence: T1 sequence with A108V, R109W, G112P

[20] = biological target: T20, PUM1 PUF domain R3-VYW C935V + R936Y + Q939W (Homo sapiens) (UniProt Q14671)
T20 sequence: T1 sequence with A108V, R109Y, G112W

**Q.** Which binding signal (log2 enrichment (interaction score)) [1] does the source give for “GGCUAGAACUAGUGGAUCCCCCGGCGCCCGGCGGCUCGAGCCCGGGUAAGUGUAAGUAGUCUGCAUGCCGCCGGGCGCCAUGCCUGCAGGUCGACUCUAGAAAACAUG” here?
**A.** Its binding signal (log2 enrichment (interaction score)) is -0.34.

**Q.** And the binding signal (log2 enrichment (interaction score)) [2]?
**A.** The binding signal (log2 enrichment (interaction score)) was -0.83.

**Q.** What about the binding signal (log2 enrichment (interaction score)) [3] of the same sequence?
**A.** Its binding signal (log2 enrichment (interaction score)) is -0.43.

**Q.** And the binding signal (log2 enrichment (interaction score)) [4]?
**A.** The binding signal (log2 enrichment (interaction score)) was -0.95.

**Q.** What about the binding signal (log2 enrichment (interaction score)) [5] of the same sequence?
**A.** The binding signal (log2 enrichment (interaction score)) was -0.8.

**Q.** And the binding signal (log2 enrichment (interaction score)) [6]?
**A.** Its binding signal (log2 enrichment (interaction score)) is -0.49.

**Q.** What about the binding signal (log2 enrichment (interaction score)) [7] of the same sequence?
**A.** Its binding signal (log2 enrichment (interaction score)) is -0.36.

**Q.** And the binding signal (log2 enrichment (interaction score)) [8]?
**A.** Its binding signal (log2 enrichment (interaction score)) is -0.71.

**Q.** What about the binding signal (log2 enrichment (interaction score)) [9] of the same sequence?
**A.** The binding signal (log2 enrichment (interaction score)) was -1.08.

**Q.** What about the binding signal (log2 enrichment (interaction score)) [10] of the same sequence?
**A.** The binding signal (log2 enrichment (interaction score)) was -0.71.

**Q.** And the binding signal (log2 enrichment (interaction score)) [11]?
**A.** The binding signal (log2 enrichment (interaction score)) was -1.05.

**Q.** And the binding signal (log2 enrichment (interaction score)) [12]?
**A.** Its binding signal (log2 enrichment (interaction score)) is -0.61.

**Q.** And the binding signal (log2 enrichment (interaction score)) [13]?
**A.** Its binding signal (log2 enrichment (interaction score)) is -0.46.

**Q.** And the binding signal (log2 enrichment (interaction score)) [14]?
**A.** The binding signal (log2 enrichment (interaction score)) was -0.94.

**Q.** And the binding signal (log2 enrichment (interaction score)) [15]?
**A.** The binding signal (log2 enrichment (interaction score)) was -0.75.

**Q.** And the binding signal (log2 enrichment (interaction score)) [16]?
**A.** The binding signal (log2 enrichment (interaction score)) was -1.1.

**Q.** And the binding signal (log2 enrichment (interaction score)) [17]?
**A.** Its binding signal (log2 enrichment (interaction score)) is -0.56.

**Q.** And the binding signal (log2 enrichment (interaction score)) [18]?
**A.** Its binding signal (log2 enrichment (interaction score)) is -0.92.

**Q.** And the binding signal (log2 enrichment (interaction score)) [19]?
**A.** Its binding signal (log2 enrichment (interaction score)) is -1.07.

**Q.** And the binding signal (log2 enrichment (interaction score)) [20]?
**A.** The binding signal (log2 enrichment (interaction score)) was -0.41.

Source: publication PMC8384837
